From paper doi:10.1101/2024.10.03.616509
Results are given in words; binding and its absence hold for the method and conditions named. A result given as binding can be weak or reduced; the word gives no strength.

target: Rab5 (Q79L); assay: two-hybrid

binding	Binder
no binding	TECPR2 (1-944 a.a.) (domain or fragment, UniProt O15040 1-944) MASISEPVTFREFCPLYYLLNAIPTKIQKGFRSIVVYLTALDTNGDYIAVGSSIGMLYLYCRHLNQMRKYNFEGKTESITVVKLLSCFDDLVAAGTASGRVAVFQLVSSLPGRNKQLRRFDVTGIHKNSITALAWSPNGMKLFSGDDKGKIVYSSLDLDQGLCNSQLVLEEPSSIVQLDYSQKVLLVSTLQRSLLFYTEEKSVRQIGTQPRKSTGKFGACFIPGLCKQSDLTLYASRPGLRLWKADVHGTVQATFILKDAFAGGVKPFELHPRLESPNSGSCSLPERHLGLVSCFFQEGWVLSWNEYSIYLLDTVNQATVAGLEGSGDIVSVSCTENEIFFLKGDRNIIRISSRPEGLTSTVRDGLEMSGCSERVHVQQAEKLPGATVSETRLRGSSMASSVASEPRSRSSSLNSTDSGSGLLPPGLQATPELGKGSQPLSQRFNAISSEDFDQELVVKPIKVKRKKKKKKTEGGSRSTCHSSLESTPCSEFPGDSPQSLNTDLLSMTSSVLGSSVDQLSAESPDQESSFNGEVNGVPQENTDPETFNVLEVSGSMPDSLAEEDDIRTEMPHCHHAHGRELLNGAREDVGGSDVTGLGDEPCPADDGPNSTQLPFQEQDSSPGAHDGEDIQPIGPQSTFCEVPLLNSLTVPSSLSWAPSAEQWLPGTRADEGSPVEPSQEQDILTSMEASGHLSTNLWHAVTDDDTGQKEIPISERVLGSVGGQLTPVSALAASTHKPWLEQPPRDQTLTSSDEEDIYAHGLPSSSSETSVTELGPSCSQQDLSRLGAEDAGLLKPDQFAESWMGYSGPGYGILSLVVSEKYIWCLDYKGGLFCSALPGAGLRWQKFEDAVQQVAVSPSGALLWKIEQKSNRAFACGKVTIKGKRHWYEALPQAVFVALSDDTAWIIRTSGDLYLQTGLSVDRPCARAVKVDCPYPLSQITARN
binds weakly	TECPR2 (D1000Y) (protein, UniProt O15040 1-1411) MASISEPVTFREFCPLYYLLNAIPTKIQKGFRSIVVYLTALDTNGDYIAVGSSIGMLYLYCRHLNQMRKYNFEGKTESITVVKLLSCFDDLVAAGTASGRVAVFQLVSSLPGRNKQLRRFDVTGIHKNSITALAWSPNGMKLFSGDDKGKIVYSSLDLDQGLCNSQLVLEEPSSIVQLDYSQKVLLVSTLQRSLLFYTEEKSVRQIGTQPRKSTGKFGACFIPGLCKQSDLTLYASRPGLRLWKADVHGTVQATFILKDAFAGGVKPFELHPRLESPNSGSCSLPERHLGLVSCFFQEGWVLSWNEYSIYLLDTVNQATVAGLEGSGDIVSVSCTENEIFFLKGDRNIIRISSRPEGLTSTVRDGLEMSGCSERVHVQQAEKLPGATVSETRLRGSSMASSVASEPRSRSSSLNSTDSGSGLLPPGLQATPELGKGSQPLSQRFNAISSEDFDQELVVKPIKVKRKKKKKKTEGGSRSTCHSSLESTPCSEFPGDSPQSLNTDLLSMTSSVLGSSVDQLSAESPDQESSFNGEVNGVPQENTDPETFNVLEVSGSMPDSLAEEDDIRTEMPHCHHAHGRELLNGAREDVGGSDVTGLGDEPCPADDGPNSTQLPFQEQDSSPGAHDGEDIQPIGPQSTFCEVPLLNSLTVPSSLSWAPSAEQWLPGTRADEGSPVEPSQEQDILTSMEASGHLSTNLWHAVTDDDTGQKEIPISERVLGSVGGQLTPVSALAASTHKPWLEQPPRDQTLTSSDEEDIYAHGLPSSSSETSVTELGPSCSQQDLSRLGAEDAGLLKPDQFAESWMGYSGPGYGILSLVVSEKYIWCLDYKGGLFCSALPGAGLRWQKFEDAVQQVAVSPSGALLWKIEQKSNRAFACGKVTIKGKRHWYEALPQAVFVALSDDTAWIIRTSGDLYLQTGLSVDRPCARAVKVDCPYPLSQITARNNVVWALTEQRALLYREGVSSFCPEGEQWKCDIVSERQALEPVCITLGDQQTLWALYIHGNLWFRTGIISKKPQGDDDHWWQVSITDYVVFDQCSLFQTIIHATHSVATAAQAPVEKVADKLRMAFWSQQLQCQPSLLGVNNSGVWISSGKNEFHVAKGSLIGTYWNHVVPRGTASATKWAFVLASAAPTKEGSFLWLCQSSKDLCSVSAQSAQSRPSTVQLPPEAEMRAYAACQDALWALDSLGQVFIRTLSKSCPTGMHWTRLDLSQLGAVKLTSLACGNQHIWACDSRGGVYFRVGTQPLNPSLMLPAWIMIEPPVQPAGVSLVSVHSSPNDQMLWVLDSRWNVHVRTGITEEMPVGTAWEHVPGLQACQLALSTRTVWARCPNGDLARRYGVTDKNPAGDYWKKIPGSVSCFTVTASDELWAVGPPGYLLQRLTKTFSHSHGTQKSSQAAMPHPEDLEDEWEVI
no binding	TECPR2 (W1140G) (protein, UniProt O15040 1-1411) MASISEPVTFREFCPLYYLLNAIPTKIQKGFRSIVVYLTALDTNGDYIAVGSSIGMLYLYCRHLNQMRKYNFEGKTESITVVKLLSCFDDLVAAGTASGRVAVFQLVSSLPGRNKQLRRFDVTGIHKNSITALAWSPNGMKLFSGDDKGKIVYSSLDLDQGLCNSQLVLEEPSSIVQLDYSQKVLLVSTLQRSLLFYTEEKSVRQIGTQPRKSTGKFGACFIPGLCKQSDLTLYASRPGLRLWKADVHGTVQATFILKDAFAGGVKPFELHPRLESPNSGSCSLPERHLGLVSCFFQEGWVLSWNEYSIYLLDTVNQATVAGLEGSGDIVSVSCTENEIFFLKGDRNIIRISSRPEGLTSTVRDGLEMSGCSERVHVQQAEKLPGATVSETRLRGSSMASSVASEPRSRSSSLNSTDSGSGLLPPGLQATPELGKGSQPLSQRFNAISSEDFDQELVVKPIKVKRKKKKKKTEGGSRSTCHSSLESTPCSEFPGDSPQSLNTDLLSMTSSVLGSSVDQLSAESPDQESSFNGEVNGVPQENTDPETFNVLEVSGSMPDSLAEEDDIRTEMPHCHHAHGRELLNGAREDVGGSDVTGLGDEPCPADDGPNSTQLPFQEQDSSPGAHDGEDIQPIGPQSTFCEVPLLNSLTVPSSLSWAPSAEQWLPGTRADEGSPVEPSQEQDILTSMEASGHLSTNLWHAVTDDDTGQKEIPISERVLGSVGGQLTPVSALAASTHKPWLEQPPRDQTLTSSDEEDIYAHGLPSSSSETSVTELGPSCSQQDLSRLGAEDAGLLKPDQFAESWMGYSGPGYGILSLVVSEKYIWCLDYKGGLFCSALPGAGLRWQKFEDAVQQVAVSPSGALLWKIEQKSNRAFACGKVTIKGKRHWYEALPQAVFVALSDDTAWIIRTSGDLYLQTGLSVDRPCARAVKVDCPYPLSQITARNNVVWALTEQRALLYREGVSSFCPEGEQWKCDIVSERQALEPVCITLGDQQTLWALDIHGNLWFRTGIISKKPQGDDDHWWQVSITDYVVFDQCSLFQTIIHATHSVATAAQAPVEKVADKLRMAFWSQQLQCQPSLLGVNNSGVWISSGKNEFHVAKGSLIGTYWNHVVPRGTASATKWAFVLASAAPTKEGSFLGLCQSSKDLCSVSAQSAQSRPSTVQLPPEAEMRAYAACQDALWALDSLGQVFIRTLSKSCPTGMHWTRLDLSQLGAVKLTSLACGNQHIWACDSRGGVYFRVGTQPLNPSLMLPAWIMIEPPVQPAGVSLVSVHSSPNDQMLWVLDSRWNVHVRTGITEEMPVGTAWEHVPGLQACQLALSTRTVWARCPNGDLARRYGVTDKNPAGDYWKKIPGSVSCFTVTASDELWAVGPPGYLLQRLTKTFSHSHGTQKSSQAAMPHPEDLEDEWEVI
